By UniProt entry, the sequences of proteins in these tests, tags left out.
UniProt O60674, whole entry: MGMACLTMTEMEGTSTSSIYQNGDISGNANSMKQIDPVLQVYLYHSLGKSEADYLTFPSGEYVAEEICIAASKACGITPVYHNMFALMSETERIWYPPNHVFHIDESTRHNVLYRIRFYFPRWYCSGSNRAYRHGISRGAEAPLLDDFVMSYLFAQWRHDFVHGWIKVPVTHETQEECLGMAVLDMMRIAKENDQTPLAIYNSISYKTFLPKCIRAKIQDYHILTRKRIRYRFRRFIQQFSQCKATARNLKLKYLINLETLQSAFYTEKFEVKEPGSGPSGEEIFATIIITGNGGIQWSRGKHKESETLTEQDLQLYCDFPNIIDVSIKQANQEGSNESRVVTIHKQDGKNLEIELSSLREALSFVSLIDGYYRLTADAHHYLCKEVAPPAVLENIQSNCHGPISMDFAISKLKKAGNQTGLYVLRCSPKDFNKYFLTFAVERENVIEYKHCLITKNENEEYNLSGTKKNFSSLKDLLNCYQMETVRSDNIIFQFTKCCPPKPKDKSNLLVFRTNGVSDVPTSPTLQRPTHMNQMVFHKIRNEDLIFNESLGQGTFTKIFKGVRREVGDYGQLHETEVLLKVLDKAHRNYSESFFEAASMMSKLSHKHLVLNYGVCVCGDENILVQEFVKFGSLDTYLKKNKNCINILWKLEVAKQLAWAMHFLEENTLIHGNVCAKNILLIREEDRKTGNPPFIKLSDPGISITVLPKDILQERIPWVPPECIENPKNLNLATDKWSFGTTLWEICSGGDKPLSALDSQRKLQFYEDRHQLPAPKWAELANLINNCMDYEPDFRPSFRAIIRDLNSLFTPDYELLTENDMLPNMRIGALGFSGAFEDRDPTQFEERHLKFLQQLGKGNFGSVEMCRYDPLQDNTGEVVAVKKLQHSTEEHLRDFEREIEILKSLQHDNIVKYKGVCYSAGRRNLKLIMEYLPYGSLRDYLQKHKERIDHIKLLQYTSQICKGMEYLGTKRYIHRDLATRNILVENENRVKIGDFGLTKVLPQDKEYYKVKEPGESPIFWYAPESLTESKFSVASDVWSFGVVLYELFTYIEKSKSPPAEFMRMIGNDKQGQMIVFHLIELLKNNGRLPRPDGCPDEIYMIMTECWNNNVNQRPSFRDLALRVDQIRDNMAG

According to US20240140952A1, “INHIBITORS AND DEGRADERS OF JANUS KINASE 2” (H. LEE MOFFITT CANCER CENTER AND RESEARCH INSTITUTE, INC., priority 2021, published 2024):

Biological target: JAK2 (Homo sapiens (Human), UniProt O60674)
Assay: Radiometric assay of enzymatic JAK2 activity by Reaction Biology Corp.
Details: read-out: Biochemical inhibition IC50

In the case of `N#CCC(C1CCCC1)n1cc(-c2nc(Nc3ccc(C4CCNCC4)cc3)nc3[nH]ccc23)cn1` (racemic) [(rac)-1], the IC50 is reported as < 0.15 nM and < 0.05 nM.

For part of its entries the source gives two or more results. This is not the full list of results. An entry can have further records. The records of an entry differ, and nothing given here explains why; dose, time, organism, isomer or construct need not be as stated for each record.
